# Data taken from the supplement of paper PMC3334620.
# The full ranking holds about 33,000 sequences; the median of “E-score (-0.5 to 0.5)” is about -0.015, and the highest 2% start at about 0.3. This is one part of the list.
# Molecular target: T1, Abf1 (UniProt P14164)
# T1 sequence: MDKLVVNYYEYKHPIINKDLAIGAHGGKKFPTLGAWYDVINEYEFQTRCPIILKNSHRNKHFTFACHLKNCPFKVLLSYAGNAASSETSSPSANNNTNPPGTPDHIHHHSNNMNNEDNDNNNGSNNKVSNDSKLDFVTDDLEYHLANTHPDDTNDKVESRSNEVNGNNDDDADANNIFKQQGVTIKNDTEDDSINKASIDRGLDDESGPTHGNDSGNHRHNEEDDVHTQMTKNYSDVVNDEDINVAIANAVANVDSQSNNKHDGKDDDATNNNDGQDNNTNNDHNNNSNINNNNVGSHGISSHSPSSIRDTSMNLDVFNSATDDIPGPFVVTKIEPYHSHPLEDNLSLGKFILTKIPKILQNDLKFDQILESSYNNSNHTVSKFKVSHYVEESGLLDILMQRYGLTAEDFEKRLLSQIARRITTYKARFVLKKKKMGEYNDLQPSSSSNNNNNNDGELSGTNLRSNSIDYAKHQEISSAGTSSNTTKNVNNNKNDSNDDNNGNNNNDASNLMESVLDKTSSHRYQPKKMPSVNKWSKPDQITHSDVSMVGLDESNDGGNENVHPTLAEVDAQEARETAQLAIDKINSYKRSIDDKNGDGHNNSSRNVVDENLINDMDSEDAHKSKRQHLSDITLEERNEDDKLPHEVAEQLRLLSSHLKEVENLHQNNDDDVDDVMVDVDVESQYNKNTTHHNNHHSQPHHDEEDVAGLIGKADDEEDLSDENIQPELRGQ
# Test: PBM E-score (8-mer binding enrichment) (E-score (-0.5 to 0.5)); higher = stronger / more preferred TF binding
# Conditions: protein concentration: 200 nM; construct: GST-full length
# How it was run: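 Yeast transcription factors, full-length or as DNA-binding domains, were expressed with a GST tag using PURExpress in vitro transcription/translation. At about 100-200 nM they were applied to universal all-10-mer Agilent arrays, double-stranded by primer extension on fresh or once-stripped slides. Fluorescent anti-GST detected bound protein, and masliner normalised the scans. E-scores for ungapped eight-base words, pooled with reverse complements, came from the Universal PBM Analysis Suite.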
row,Sequence,PBM E-score
1,AATGAAGC,0.102
2,CCCTGTCC,-0.278
3,CGCCATTA,-0.131
4,CTGCAAAC,-0.00591
5,CAGCAAGA,0.0125
6,AATCGCTG,0.0947
7,CGAATGTA,-0.0202
8,GCGGCAAA,0.0189
9,AATCCCCC,-0.241
10,ATGTAATC,0.079
11,TAGGAAAA,0.0282
12,CTCCTAAA,-0.019
13,CAATATTA,0.271
14,ACCGCTTA,-0.0364
15,AAGCTCGG,-0.176
16,AGAGATTG,0.0704
17,AGAGCTGA,-0.212
18,AGGCGGAG,0.039
19,GCGCAGCC,-0.25
20,AGTCGGCA,-0.111
21,ATTGTTCC,0.138
22,AACAAGCG,0.137
23,TACCGAAA,-0.0387
24,TACACAGA,-0.104
25,CCTTACAC,-0.0587

# In another format: results already given
row	Sequence	PBM E-score
13	CAATATTA	0.271
14	ACCGCTTA	-0.0364
15	AAGCTCGG	-0.176
16	AGAGATTG	0.0704
17	AGAGCTGA	-0.212

# (further entries)

row,Sequence,PBM E-score
1,AAGAAGCT,0.144
2,ATGCTTAG,0.166
3,GCGTTGCC,-0.111
4,CTTAGCGA,0.0369
5,CAATGTCG,0.239
6,AATGAGTC,-0.0602
7,AGCGCCTG,-0.279
8,GACCATTA,0.169
9,ACTTACAC,-0.0255
10,CATAGGGG,-0.215
11,GCCGACCA,-0.136
12,GGACGCCA,-0.173
13,ACAAATGA,-0.0478
14,AGACTACT,-0.073
15,ATCCTAAC,0.117
16,CGAGCCGC,0.052
17,AGGTAAGG,-0.181
18,GGAGCTAA,-0.00847
19,AACATGGT,-0.0248
20,TGAGCTAA,-0.0888
21,AGAGACAA,0.0374
22,GATAGGCA,-0.0766
23,CAAACTCC,-0.0841
24,AGGATTAA,-0.129
25,ATGGTCAG,0.0274

row,Sequence,PBM E-score
1,GAACTGGA,0.0236
2,TATGAAAA,0.189
3,CGCGTGAA,0.126
4,AAACCCCC,-0.295
5,AGACTTTC,-0.0575
6,CTATCTCA,0.147
7,ACATAATC,0.205
8,CAAGCTTG,-0.279
9,ATGCCCTG,-0.068
10,AGAGGAAT,-0.243
11,GATGCGTA,0.0677
12,CAGTTCTC,-0.0877
13,ACCTTCTG,-0.0995
14,AGAGTATA,0.13
15,GAGTTCCC,-0.169
16,ATGAGCCG,0.0652
17,AATACGGG,0.202
18,CGCCCGTC,0.102
19,ACAGCGCC,-0.0983
20,AAGACCTA,-0.0124
21,ACAGGTCA,-0.0348
22,CTCGGGTA,-0.171
23,GTAAGGTA,0.092
24,GCGCCGCC,-0.0591
25,ATTCTACG,0.22

row,Sequence,PBM E-score
1,GTGTACTA,0.165
2,GTCGGAAA,0.146
3,GCTGTCGA,-0.252
4,CACTTACA,0.0868
5,CCCTATCC,-0.23
6,AAAGAAAT,0.153
7,GGGGCTCA,-0.262
8,AAAAAGCG,-0.125
9,ACCGACAA,0.115
10,CGGGACCA,-0.317
11,AATTTCAT,0.134
12,CATTTGAG,0.0534
13,CACTGCTG,-0.189
14,ATTCCCCG,-0.132
15,AGTAGATC,0.0402
16,CTGAGTGA,0.124
17,AAGTCCCA,-0.207
18,CAACAGTA,0.0414
19,AATATTCA,-0.0685
20,GTTTTCGA,0.193
21,AAAGTTCC,-0.091
22,CATTGGTC,-0.0867
23,CACAAATC,0.0151
24,AACGAAAG,0.0958
25,GGGGTGGA,-0.3

row,Sequence,PBM E-score
1,AGTTTATG,-0.0326
2,TCATGAAA,0.00026
3,GAGCCGGC,-0.186
4,CGTGAGCC,0.116
5,CAGTTCGG,0.0374
6,ATGTGTCG,0.0704
7,CACCTCTC,-0.196
8,CTAAGATA,0.0158
9,ATCAATTA,0.167
10,ACTTTCCG,0.0539
11,AGCAATAC,0.0761
12,TGTGTGAA,-0.234
13,AGGTGGCG,-0.18
14,ACCTTGGG,-0.0211
15,AATGTAGT,0.0994
16,ACTTGAGA,0.00102
17,TCTACAAA,0.0249
18,AACATGTA,0.0593
19,AATCTTAT,0.0466
20,ATTAAACC,0.115
21,ATTCTTGG,-0.0422
22,GGACTTGA,0.0954
23,CGGACGAA,0.35
24,ACGGGCCC,-0.0767
25,GGCCCACC,-0.235

# 3 entries from above, bar-delimited.
row | Sequence | PBM E-score
7 | CGAATGTA | -0.0202
8 | GCGGCAAA | 0.0189
9 | AATCCCCC | -0.241

# (next part)

row,Sequence,PBM E-score
1,AGACCCCT,-0.345
2,ATCAATGA,0.215
3,GAGGGGAA,-0.129
4,CGATTCTC,-0.026
5,ACGTACTA,0.188
6,GCGCTCCA,-0.174
7,CCTACTCC,-0.157
8,GACCCGCA,-0.0925
9,CTAGTAAC,0.102
10,GACAATAA,0.133
11,CGACACTC,0.0104
12,ATCCTCCG,0.0496
13,ATCGTCGC,0.362
14,CAGCGCGG,-0.0817
15,GAAGGTCA,0.114
16,CCGTTCAC,0.166
17,CCTACGAA,0.253
18,ATTGATGG,-0.0326
19,CGACGGAG,0.167
20,CACCGGTG,-0.0266
21,CTTGTGTA,0.0304
22,CCGAAAGA,-0.124
23,CGCATCGC,0.0612
24,GAATCTCC,-0.171
25,CCCTTCTC,-0.326

row,Sequence,PBM E-score
1,ACCTCCTC,-0.0917
2,CTGGCTCA,-0.0243
3,CGTGGGAC,0.133
4,TCGAACAA,0.177
5,AATATAGG,0.175
6,GAATTGAC,0.051
7,ATGCCTTG,-0.0634
8,CCAGGGCG,-0.116
9,CTCCACGA,0.241
10,ACATCTGG,-0.0043
11,GAAGGAGC,-0.324
12,GCCCCACA,-0.232
13,AAAGAGCG,-0.155
14,AACAAGCC,-0.114
15,GCTATTCC,-0.294
16,CGTCCTTA,0.108
17,GCGGGTCC,-0.227
18,CGCGCTCC,-0.0773
19,AACTCCGG,-0.0722
20,GAGTGCTA,0.0135
21,ATCTATAG,0.0263
22,CTGATCCA,0.0639
